Consider 3 substances from publication PMC3738564.

These are yes or no findings as the source states them, for the method shown. In cells and extracts the contact can be indirect. For part of these data: A result given as binding can be weak or reduced; the word gives no strength.

Assay [1] addresses T1, β-dystroglycan (mouse (endogenous in skeletal muscle)) (UniProt Q62165).
T1 sequence: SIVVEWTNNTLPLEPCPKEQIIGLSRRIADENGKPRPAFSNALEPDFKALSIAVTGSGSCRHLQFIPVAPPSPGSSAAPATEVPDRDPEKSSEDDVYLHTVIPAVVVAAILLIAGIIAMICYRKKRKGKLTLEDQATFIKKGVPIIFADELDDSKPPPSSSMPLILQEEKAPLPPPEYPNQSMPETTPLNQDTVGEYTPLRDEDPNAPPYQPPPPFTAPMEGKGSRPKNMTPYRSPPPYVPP
In words: co-IP; β-dystroglycan precipitated with MANDAG2 from mdx/Utrn-/- (no dystrophin, no utrophin) mouse quadriceps lysate (1% digitonin, 0.05% NP-40); Western blot.

The target of assay [2] is T1, β-dystroglycan (mouse (endogenous in skeletal muscle)). Briefly: co-IP; β-dystroglycan precipitated with MANDAG2 on protein G beads from wild type mouse quadriceps lysate (1% digitonin, 0.05% NP-40; 1 mg protein); Western blot; also done on mdx and mdx/Utrn-/- lysates.
For assay [3] the target is unchanged. Briefly: co-IP; β-dystroglycan precipitated with MANDAG2 from mdx (dystrophin-deficient) mouse quadriceps lysate (1% digitonin, 0.05% NP-40); Western blot.

For the substance α1-dystrobrevin (from UniProt Q9D2N4-2), the binding result in assay [1] is “binds weakly”; in assay [2], “binds”.

Take “α2-dystrobrevin (mouse (endogenous in skeletal muscle))”: the binding entry in assay [1] is “binds weakly”; in assay [2] it was “binds”.

For the substance “α3-dystrobrevin (mouse (endogenous in skeletal muscle))”, the binding entry in assay [3] was “no binding (only in mdx muscle (no dystrophin))”; in assay [2], “binds”.
